# In US10781452B2, “FLT3 receptor antagonists for the treatment or the prevention of pain disorders” (INSTITUT NATIONAL DE LA SANTE ET DE LA RECHERCHE MEDICALE …, priority 2010, dated 2020):
# At least one compound was matched to its structure with a doubt left.
# Biological target: T1, FLT3 (Mus musculus, UniProt Q00342)
# T1 sequence (Q00342 28-1000): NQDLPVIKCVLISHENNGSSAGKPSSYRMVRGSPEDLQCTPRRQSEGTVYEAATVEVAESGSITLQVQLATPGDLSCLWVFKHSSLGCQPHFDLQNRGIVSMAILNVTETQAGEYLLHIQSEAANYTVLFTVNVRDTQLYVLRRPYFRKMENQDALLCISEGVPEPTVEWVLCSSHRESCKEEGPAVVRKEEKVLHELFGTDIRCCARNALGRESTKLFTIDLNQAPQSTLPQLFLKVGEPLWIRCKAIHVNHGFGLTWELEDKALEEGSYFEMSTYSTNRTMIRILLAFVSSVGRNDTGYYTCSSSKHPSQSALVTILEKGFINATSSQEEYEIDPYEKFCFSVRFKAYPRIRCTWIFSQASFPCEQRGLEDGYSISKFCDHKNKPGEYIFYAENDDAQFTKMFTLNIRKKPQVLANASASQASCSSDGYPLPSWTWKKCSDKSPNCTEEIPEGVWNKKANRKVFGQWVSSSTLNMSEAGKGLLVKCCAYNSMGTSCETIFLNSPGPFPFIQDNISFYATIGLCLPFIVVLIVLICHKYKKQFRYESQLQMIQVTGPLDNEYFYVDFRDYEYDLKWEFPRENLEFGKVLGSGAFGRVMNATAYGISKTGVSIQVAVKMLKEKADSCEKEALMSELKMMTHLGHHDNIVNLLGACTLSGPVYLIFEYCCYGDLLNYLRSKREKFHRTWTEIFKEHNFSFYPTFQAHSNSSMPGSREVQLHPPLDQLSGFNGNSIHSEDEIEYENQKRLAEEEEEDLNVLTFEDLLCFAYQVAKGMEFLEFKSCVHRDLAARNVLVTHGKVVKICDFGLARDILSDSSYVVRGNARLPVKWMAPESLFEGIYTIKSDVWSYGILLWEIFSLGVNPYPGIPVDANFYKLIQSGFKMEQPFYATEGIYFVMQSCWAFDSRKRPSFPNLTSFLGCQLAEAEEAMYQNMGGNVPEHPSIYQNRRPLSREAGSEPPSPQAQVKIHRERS
# Assay: Inhibition of FL-induced potentiation of capsaicin [Ca2+]i response in DRG sensory neurons
# Format: cell-based, mice
# Set-up: Primary neuronal cultures were established from lumbar (L4 to L6) dorsal root ganglia; endogenous in cells; host or cells: primary adult mouse DRG neurons
# Details: incubated at 200 nM
compound,measurement,value
"C[C@]12O[C@H](C[C@]1(O)CO)n1c3ccccc3c3c4c(c5c6ccccc6n2c5c31)CNC4=O [CEP-701, lestaurtinib]",sensitization in capsaicin [Ca2+]i response after FL application,did not show any sensitization
